The values below come from patent publication US20100098789A1, “Compositions of ground/powdered nuts/nut butters with curcuminoids/turmeric/mix having improved health benefits and oxidative stability” (priority 2008, published 2010).

Entries after “also recorded” stand apart in the source; their conditions may differ.

This data set can be described thus: Solubility of curcumin in almond oil and water (1 g/100 ml, stirred, filtered, filtrate colour). The data set is classed as physicochemical. The source says:
(A) Almond oil (B) water. […] We performed the following experiment to compare the solubilities of curcumin in water and almond oil. […] The filtrate was yellow in color.

For the compound `COc1cc(/C=C/C(=O)CC(=O)/C=C/c2ccc(O)c(OC)c2)ccc1O` [curcumin, (1E,6E)-1,7-bis (4-hydroxy-3-methoxyphenyl) hepta-1,6-diene 3,5-dione], for the setting “1 g curcumin in 100 ml almond oil”, the “Solubility in almond oil” value is given as “very soluble; also recorded: much higher concentration of dissolved curcumin”. The Solubility in water result (1 g curcumin in 100 ml water) is listed as “not soluble; also recorded: negligible concentration of dissolved curcumin”.
